Structures can show the parent of a compound that is named as a salt. Some of the results follow. Hit calls seldom repeat between salt and free forms of one compound.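 In K562 cells expressing nanoluciferase-fused kinases, luminescence was recorded at 4 h intervals between 2 and 18 h, normalized as percent of control with DMSO at 100% and a positive control at 0%. A significant (2 sigma) signal drop marks a time point as decreased. The authors' rule for a hit is not shown and takes in more than the number of time points.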
biological target: RAF1_S257L (clone: RAF1_mut) (UniProt P04049); assay: kinase-Nluc reporter destabilization hit call (1 = scored as downregulated) (binary); higher = compound decreases kinase abundance; details: 10 µM; K562; 2-18 h

kinase-Nluc reporter destabilization hit call, inactive:
COc1cc2c(-c3cnn4cc(N5CCC(N6CCN(C)CC6)CC5)cnc34)ccnc2cc1F [ALK2-IN-4 (succinate)] 0
CCN(CC)Cc1ccc(OC)c(-c2cc3c(-c4ccc(C(=O)O)c(C(C)C)c4)ccnc3[nH]2)c1 0
O=C(c1nn(-c2ccc(CN3CCOCC3)cc2)c2c1CS(=O)(=O)c1c(F)cccc1-2)N1CCOCC1 0
CC(C)(C)n1nc(-c2cccc3ccccc23)c2c(N)ncnc21 [1-Naphthyl PP1 (hydrochloride)] 0
CCN(CC)CC(=O)Nc1c(C)cccc1C [Lidocaine (hydrochloride)] 0
Cn1ncc(Cl)c1-c1cc(C(=O)N[C@H](CN)Cc2cccc(F)c2)sc1Cl [Afuresertib (hydrochloride)] 0
COc1cc2c(cc1OC)-c1c(C)c3ccc(OC)c(OC)c3c[n+]1CC2 [Dehydrocorydaline] 0
C[C@H](CCC(=O)NCCS(=O)(=O)O)[C@H]1CC[C@H]2[C@@H]3[C@@H](O)C[C@@H]4C[C@H](O)CC[C@]4(C)[C@H]3CC[C@]12C [Tauroursodeoxycholate (dihydrate)] 0
OCCn1cc(-c2cnc3nnn(Cc4ccc5ncccc5c4)c3n2)cn1 0
C[S+]([O-])c1ccc(-c2nc(-c3ccc(F)cc3)c(-c3ccncc3)[nH]2)cc1 (stereo unspecified) 0
CC(C)(C)n1nc(-c2cccc3ccccc23)c2c(N)ncnc21 [1-Naphthyl PP1] 0

2 entries picked at random from those above:
kinase-Nluc reporter destabilization hit call, inactive:
Cn1ncc(Cl)c1-c1cc(C(=O)N[C@H](CN)Cc2cccc(F)c2)sc1Cl [Afuresertib (hydrochloride)] 0
O=C(c1nn(-c2ccc(CN3CCOCC3)cc2)c2c1CS(=O)(=O)c1c(F)cccc1-2)N1CCOCC1 0

From the supplement of paper PMC12823440, “Inhibitors supercharge kinase turnover through native proteolytic circuits” (Nature, 2025)
